Test results: US12729225B2, “Non-canonical SWI/SNF complex and uses thereof” (Dana-Farber Cancer Institute, Inc., priority 2018, dated 2026)

Test system: mSWI/SNF complexes
Test: mSWI/SNF complex purification with HA-tagged baits and mass spectrometry (peptide counts)
Parameters: species or system human
[1] = 293_HA-BRD7 bait purification, mass spectrometry, total peptides per co-purified protein
[2] = 293_HA-BRD7 bait purification, mass spectrometry, unique peptides per co-purified protein

Molecule	Total [1]	Unique [2]	Total (293_HA-BRD7: HA-BRD7 bait purification, total peptide count per co-purified protein)	Unique (293_HA-BRD7: HA-BRD7 bait purification, unique peptide count per co-purified protein)
NAT10 (protein, UniProt Q9H0A0 1-1025, looked up) RNA cytidine acetyltransferase: MHRKKVDNRIRILIENGVAERQRSLFVVVGDRGKDQVVILHHMLSKATVKARPSVLWCYKKELGFSSHRKKRMRQLQKKIKNGTLNIKQDDPFELFIAATNIRYCYYNETHKILGNTFGMCVLQDFEALTPNLLARTVETVEGGGLVVILLRTMNSLKQLYTVTMDVHSRYRTEAHQDVVGRFNERFILSLASCKKCLVIDDQLNILPISSHVATMEALPPQTPDESLGPSDLELRELKESLQDTQPVGVLVDCCKTLDQAKAVLKFIEGISEKTLRSTVALTAARGRGKSAALGLAIAGAVAFGYSNIFVTSPSPDNLHTLFEFVFKGFDALQYQEHLDYEIIQSLNPEFNKAVIRVNVFREHRQTIQYIHPADAVKLGQAELVVIDEAAAIPLPLVKSLLGPYLVFMASTINGYEGTGRSLSLKLIQQLRQQSAQSQVSTTAENKTTTTARLASARTLYEVSLQESIRYAPGDAVEKWLNDLLCLDCLNITRIVSGCPLPEACELYYVNRDTLFCYHKASEVFLQRLMALYVASHYKNSPNDLQMLSDAPAHHLFCLLPPVPPTQNALPEVLAVIQVCLEGEISRQSILNSLSRGKKASGDLIPWTVSEQFQDPDFGGLSGGRVVRIAVHPDYQGMGYGSRALQLLQMYYEGRFPCLEEKVLETPQEIHTVSSEAVSLLEEVITPRKDLPPLLLKLNERPAERLDYLGVSYGLTPRLLKFWKRAGFVPVYLRQTPNDLTGEHSCIMLKTLTDEDEADQGGWLAAFWKDFRRRFLALLSYQFSTFSPSLALNIIQNRNMGKPAQPALSREELEALFLPYDLKRLEMYSRNMVDYHLIMDMIPAISRIYFLNQLGDLALSAAQSALLLGIGLQHKSVDQLEKEIELPSGQLMGLFNRIIRKVVKLFNEVQEKAIEEQMVAAKDVVMEPTMKTLSDDLDEAAKEFQEKHKKEVGKLKSMDLSEYIIRGDDEEWNEVLNKAGPNASIISLKSDKKRKLEAKQEPKQSKKLKNRETKNKKDMKLKRKK	1	1	–	–
GCAT (protein, UniProt O75600 22-419, looked up) 2-amino-3-ketobutyrate …: SALAQLRGILEGELEGIRGAGTWKSERVITSRQGPHIRVDGVSGGILNFCANNYLGLSSHPEVIQAGLQALEEFGAGLSSVRFICGTQSIHKNLEAKIARFHQREDAILYPSCYDANAGLFEALLTPEDAVLSDELNHASIIDGIRLCKAHKYRYRHLDMADLEAKLQEAQKHRLRLVATDGAFSMDGDIAPLQEICCLASRYGALVFMDECHATGFLGPTGRGTDELLGVMDQVTIINSTLGKALGGASGGYTTGPGPLVSLLRQRARPYLFSNSLPPAVVGCASKALDLLMGSNTIVQSMAAKTQRFRSKMEAAGFTISGASHPICPVMLGDARLASRMADDMLKRGIFVIGFSYPVVPKGKARIRVQISAVHSEEDIDRCVEAFVEVGRLHGALP	1	1	–	–
HSDL2 (protein, UniProt Q6YN16 1-418, looked up) Hydroxysteroid …: MLPNTGRLAGCTVFITGASRGIGKAIALKAAKDGANIVIAAKTAQPHPKLLGTIYTAAEEIEAVGGKALPCIVDVRDEQQISAAVEKAIKKFGGIDILVNNASAISLTNTLDTPTKRLDLMMNVNTRGTYLASKACIPYLKKSKVAHILNISPPLNLNPVWFKQHCAYTIAKYGMSMYVLGMAEEFKGEIAVNALWPKTAIHTAAMDMLGGPGIESQCRKVDIIADAAYSIFQKPKSFTGNFVIDENILKEEGIENFDVYAIKPGHPLQPDFFLDEYPEAVSKKVESTGAVPEFKEEKLQLQPKPRSGAVEETFRIVKDSLSDDVVKATQAIYLFELSGEDGGTWFLDLKSKGGNVGYGEPSDQADVVMSMTTDDFVKMFSGKLKPTMAFMSGKLKIKGNMALAIKLEKLMNQMNARL	1	1	–	–
ZMPSTE24 (protein, UniProt O75844 1-475, looked up) CAAX prenyl protease 1 homolog: MGMWASLDALWEMPAEKRIFGAVLLFSWTVYLWETFLAQRQRRIYKTTTHVPPELGQIMDSETFEKSRLYQLDKSTFSFWSGLYSETEGTLILLFGGIPYLWRLSGRFCGYAGFGPEYEITQSLVFLLLATLFSALTGLPWSLYNTFVIEEKHGFNQQTLGFFMKDAIKKFVVTQCILLPVSSLLLYIIKIGGDYFFIYAWLFTLVVSLVLVTIYADYIAPLFDKFTPLPEGKLKEEIEVMAKSIDFPLTKVYVVEGSKRSSHSNAYFYGFFKNKRIVLFDTLLEEYSVLNKDIQEDSGMEPRNEEEGNSEEIKAKVKNKKQGCKNEEVLAVLGHELGHWKLGHTVKNIIISQMNSFLCFFLFAVLIGRKELFAAFGFYDSQPTLIGLLIIFQFIFSPYNEVLSFCLTVLSRRFEFQADAFAKKLGKAKDLYSALIKLNKDNLGFPVSDWLFSMWHYSHPPLLERLQALKTMKQH	1	1	–	–
GNL3 (protein, UniProt Q9BVP2 1-549, looked up) Guanine nucleotide-binding …: MKRPKLKKASKRMTCHKRYKIQKKVREHHRKLRKEAKKRGHKKPRKDPGVPNSAPFKEALLREAELRKQRLEELKQQQKLDRQKELEKKRKLETNPDIKPSNVEPMEKEFGLCKTENKAKSGKQNSKKLYCQELKKVIEASDVVLEVLDARDPLGCRCPQVEEAIVQSGQKKLVLILNKSDLVPKENLESWLNYLKKELPTVVFRASTKPKDKGKITKRVKAKKNAAPFRSEVCFGKEGLWKLLGGFQETCSKAIRVGVIGFPNVGKSSIINSLKQEQMCNVGVSMGLTRSMQVVPLDKQITIIDSPSFIVSPLNSSSALALRSPASIEVVKPMEAASAILSQADARQVVLKYTVPGYRNSLEFFTVLAQRRGMHQKGGIPNVEGAAKLLWSEWTGASLAYYCHPPTSWTPPPYFNESIVVDMKSGFNLEELEKNNAQSIRAIKGPHLANSILFQSSGLTNGIIEEKDIHEELPKRKERKQEEREDDKDSDQETVDEEVDENSSGMFAAEETGEALSEETTAGEQSTRSFILDKIIEEDDAYDFSTDYV	–	–	17	15
IPO5 (protein, UniProt O00410 2-1097, looked up) Importin-5: AAAAAEQQQFYLLLGNLLSPDNVVRKQAEETYENIPGQSKITFLLQAIRNTTAAEEARQMAAVLLRRLLSSAFDEVYPALPSDVQTAIKSELLMIIQMETQSSMRKKVCDIAAELARNLIDEDGNNQWPEGLKFLFDSVSSQNVGLREAALHIFWNFPGIFGNQQQHYLDVIKRMLVQCMQDQEHPSIRTLSARATAAFILANEHNVALFKHFADLLPGFLQAVNDSCYQNDDSVLKSLVEIADTVPKYLRPHLEATLQLSLKLCGDTSLNNMQRQLALEVIVTLSETAAAMLRKHTNIVAQTIPQMLAMMVDLEEDEDWANADELEDDDFDSNAVAGESALDRMACGLGGKLVLPMIKEHIMQMLQNPDWKYRHAGLMALSAIGEGCHQQMEGILNEIVNFVLLFLQDPHPRVRYAACNAVGQMATDFAPGFQKKFHEKVIAALLQTMEDQGNQRVQAHAAAALINFTEDCPKSLLIPYLDNLVKHLHSIMVLKLQELIQKGTKLVLEQVVTSIASVADTAEEKFVPYYDLFMPSLKHIVENAVQKELRLLRGKTIECISLIGLAVGKEKFMQDASDVMQLLLKTQTDFNDMEDDDPQISYMISAWARMCKILGKEFQQYLPVVMGPLMKTASIKPEVALLDTQDMENMSDDDGWEFVNLGDQQSFGIKTAGLEEKSTACQMLVCYAKELKEGFVEYTEQVVKLMVPLLKFYFHDGVRVAAAESMPLLLECARVRGPEYLTQMWHFMCDALIKAIGTEPDSDVLSEIMHSFAKCIEVMGDGCLNNEHFEELGGILKAKLEEHFKNQELRQVKRQDEDYDEQVEESLQDEDDNDVYILTKVSDILHSIFSSYKEKVLPWFEQLLPLIVNLICPHRPWPDRQWGLCIFDDVIEHCSPASFKYAEYFLRPMLQYVCDNSPEVRQAAAYGLGVMAQYGGDNYRPFCTEALPLLVRVIQSADSKTKENVNATENCISAVGKIMKFKPDCVNVEEVLPHWLSWLPLHEDKEEAVQTFNYLCDLIESNHPIVLGPNNTNLPKIFSIIAEGEMHEAIKHEDPCAKRLANVVRQVQTSGGLWTECIAQLSPEQQAAIQELLNSA	1	1	–	–
TMLHE (protein, UniProt Q9NVH6 16-421, looked up) Trimethyllysine dioxygenase, …: LLKGGVIYPALPQPNFKSLLPLAVHWHHTASKSLTCAWQQHEDHFELKYANTVMRFDYVWLRDHCRSASCYNSKTHQRSLDTASVDLCIKPKTIRLDETTLFFTWPDGHVTKYDLNWLVKNSYEGQKQKVIQPRILWNAEIYQQAQVPSVDCQSFLETNEGLKKFLQNFLLYGIAFVENVPPTQEHTEKLAERISLIRETIYGRMWYFTSDFSRGDTAYTKLALDRHTDTTYFQEPCGIQVFHCLKHEGTGGRTLLVDGFYAAEQVLQKAPEEFELLSKVPLKHEYIEDVGECHNHMIGIGPVLNIYPWNKELYLIRYNNYDRAVINTVPYDVVHRWYTAHRTLTIELRRPENEFWVKLKPGRVLFIDNWRVLHGRECFTGYRQLCGCYLTRDDVLNTARLLGLQA	1	1	–	–
MTPAP (protein, UniProt Q9NVV4 38-582, looked up) Poly(A) RNA polymerase, …: KDLRRDEQPSGSVETGFEDKIPKRRFSEMQNERREQAQRTVLIHCPEKISENKFLKYLSQFGPINNHFFYESFGLYAVVEFCQKESIGSLQNGTHTPSTAMETAIPFRSRFFNLKLKNQTSERSRVRSSNQLPRSNKQLFELLCYAESIDDQLNTLLKEFQLTEENTKLRYLTCSLIEDMAAAYFPDCIVRPFGSSVNTFGKLGCDLDMFLDLDETRNLSAHKISGNFLMEFQVKNVPSERIATQKILSVLGECLDHFGPGCVGVQKILNARCPLVRFSHQASGFQCDLTTNNRIALTSSELLYIYGALDSRVRALVFSVRCWARAHSLTSSIPGAWITNFSLTMMVIFFLQRRSPPILPTLDSLKTLADAEDKCVIEGNNCTFVRDLSRIKPSQNTETLELLLKEFFEYFGNFAFDKNSINIRQGREQNKPDSSPLYIQNPFETSLNISKNVSQSQLQKFVDLARESAWILQQEDTDRPSISSNRPWGLVSLLLPSAPNRKSFTKKKSNKFAIETVKNLLESLKGNRTENFTKTSGKRTISTQT	1	1	–	–
SLC38A2 (protein, UniProt Q96QD8 1-506, looked up) Sodium-coupled neutral amino …: MKKAEMGRFSISPDEDSSSYSSNSDFNYSYPTKQAALKSHYADVDPENQNFLLESNLGKKKYETEFHPGTTSFGMSVFNLSNAIVGSGILGLSYAMANTGIALFIILLTFVSIFSLYSVHLLLKTANEGGSLLYEQLGYKAFGLVGKLAASGSITMQNIGAMSSYLFIVKYELPLVIQALTNIEDKTGLWYLNGNYLVLLVSLVVILPLSLFRNLGYLGYTSGLSLLCMVFFLIVVICKKFQVPCPVEAALIINETINTTLTQPTALVPALSHNVTENDSCRPHYFIFNSQTVYAVPILIFSFVCHPAVLPIYEELKDRSRRRMMNVSKISFFAMFLMYLLAALFGYLTFYEHVESELLHTYSSILGTDILLLIVRLAVLMAVTLTVPVVIFPIRSSVTHLLCASKDFSWWRHSLITVSILAFTNLLVIFVPTIRDIFGFIGASAASMLIFILPSAFYIKLVKKEPMKSVQKIGALFFLLSGVLVMTGSMALIVLDWVHNAPGGGH	1	1	–	–
